Laboratory results reported in paper PMC8759595.
Changes are numbered by the printed parent chain. No constants are given. Whether binding was seen depends on the method and setting. In cells and extracts the contact can be indirect. Binding calls can cover weak binding; strength is not graded here. Sequences can lack the tags named with a protein.

What was measured:
Test in all cases: co-IP; Myc-ACBD5 constructs or Myc-VAPB in COS-7 lysates (10 mM Tris-HCl pH 7.4, 150 mM NaCl, 0.5 mM EDTA, 0.5% NP-40, phosphatase inhibitor), Myc-TRAP magnetic agarose beads 1 h at 4°C; immunoblot; in some panels GSK3β WT or K85A coexpressed (Figs. 2 C, 3 A, 5 A, 7 A, S1 C, S4 B)
[1] = molecular target: T1, Myc-ACBD5 T258A/S259A (UniProt Q5T8D3)
T1 sequence: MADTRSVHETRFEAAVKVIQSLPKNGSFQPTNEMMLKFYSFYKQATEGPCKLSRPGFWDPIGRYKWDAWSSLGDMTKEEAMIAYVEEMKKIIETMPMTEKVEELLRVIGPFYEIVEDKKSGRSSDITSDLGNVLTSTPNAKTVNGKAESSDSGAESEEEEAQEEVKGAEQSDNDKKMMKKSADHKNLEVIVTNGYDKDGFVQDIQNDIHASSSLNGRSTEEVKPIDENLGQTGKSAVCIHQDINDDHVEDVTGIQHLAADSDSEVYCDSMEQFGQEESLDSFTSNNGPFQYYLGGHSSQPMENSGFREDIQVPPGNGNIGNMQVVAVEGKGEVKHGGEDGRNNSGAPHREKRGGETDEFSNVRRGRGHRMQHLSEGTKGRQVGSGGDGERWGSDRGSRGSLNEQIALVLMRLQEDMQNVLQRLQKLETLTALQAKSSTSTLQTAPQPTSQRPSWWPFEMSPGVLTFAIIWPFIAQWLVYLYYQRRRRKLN

[2] = molecular target: T2, Myc-ACBD5 S259A (UniProt Q5T8D3)
T2 sequence: T1 sequence with A258T

[3] = molecular target: T3, Myc-ACBD5 T252A (UniProt Q5T8D3)
T3 sequence: T1 sequence with T252A, A258T, A259S

[4] = molecular target: T4, Myc-ACBD5 (UniProt Q5T8D3)
T4 sequence: T1 sequence with A258T, A259S

binding [1]: binds | binding [2]: binds | binding [3]: binds | binding [4]: binds
Substance: endogenous VAPB (COS-7 cells)
